# Most entries show no effect beyond the scatter of the controls.
# Assays:
# Test in all cases: normalised response (% of control), CellTox Green; higher = less cell death (100 = DMSO, 0 = benzethonium chloride kill control)
# Details in all cases: incubation time: 72 h
# HCC1599 = test system: HCC1599
# Protocol: (§1)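 DSRT, 72 h incubation, CellTox Green / CellTiter-Glo readout. Signal is normalised to DMSO and benzethonium chloride controls. Value is the normalised response at the lowest tested concentration.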
# CAL-120 = test system: CAL-120
# Protocol: as §1
# MDA-MB-231 = test system: MDA-MB-231
# Protocol: as §1
# CAL-85-1 = test system: CAL-85-1
# Protocol: as §1
# MDA-MB-468 = test system: MDA-MB-468
# Protocol: as §1
# CAL-51 = test system: CAL-51
# Protocol: as §1
# DU-4475 = test system: DU-4475
# Protocol: as §1
# CAL-148 = test system: CAL-148
# Protocol: as §1
# BT-474 = test system: BT-474
# Protocol: as §1
# BT-549 = test system: BT-549
# Protocol: as §1
# Hs578T = test system: Hs578T
# Protocol: as §1
# MDA-MB-436 = test system: MDA-MB-436
# Protocol: as §1
# MFM-223 = test system: MFM-223
# Protocol: as §1
# MDA-MB-453 = test system: MDA-MB-453
# Protocol: as §1
# HDQ-P1 = test system: HDQ-P1
# Protocol: as §1
# HCC1937 = test system: HCC1937
# Protocol: as §1
# HCC1143 = test system: HCC1143
# Protocol: as §1
# MCF-10A = test system: MCF-10A
# Protocol: as §1
Structure (SMILES),normalised response (HCC1599),normalised response (CAL-120),normalised response (MDA-MB-231),normalised response (CAL-85-1),normalised response (MDA-MB-468),normalised response (CAL-51),normalised response (DU-4475),normalised response (CAL-148),normalised response (BT-474),normalised response (BT-549),normalised response (Hs578T),normalised response (MDA-MB-436),normalised response (MFM-223),normalised response (MDA-MB-453),normalised response (HDQ-P1),normalised response (HCC1937),normalised response (HCC1143),normalised response (MCF-10A)
CC(C)(C#N)c1cc(Cn2cncn2)cc(C(C)(C)C#N)c1 [Anastrozole] (1 nM),101%,99.1%,108%,105%,113%,97.2%,103%,102%,102%,110%,111%,93.5%,104%,106%,97.9%,101%,117%,–
O=C(O)CCCc1ccc(N(CCCl)CCCl)cc1 [Chlorambucil] (1 nM),109%,100%,97.3%,105%,71.5%,102%,103%,104%,99.4%,93.8%,103%,102%,103%,106%,102%,105%,124%,102%
Nc1nc(Cl)nc2c1ncn2[C@H]1C[C@H](O)[C@@H](CO)O1 [Cladribine] (0.1 nM),107%,102%,113%,104%,106%,107%,105%,103%,99.8%,97.6%,111%,90.5%,87.8%,101%,104%,103%,99.3%,97.5%
COc1cc2ncnc(Nc3ccc(F)c(Cl)c3)c2cc1NC(=O)/C=C/CN1CCCCC1 [Dacomitinib] (0.1 nM),107%,73%,111%,78.4%,75.5%,72.3%,102%,63.3%,78.7%,79%,94.1%,88.6%,101%,95.2%,77.4%,92.7%,111%,86.5%
Nc1cccc2c1CN(C1CCC(=O)NC1=O)C2=O (stereo not given) [Lenalidomide] (1 nM),101%,102%,106%,96.4%,83%,116%,99.4%,94.9%,103%,101%,110%,81.4%,86.5%,96.1%,105%,–,117%,90.8%
O=C(O)CC[C@H]1CC[C@@](c2cc(F)ccc2F)(S(=O)(=O)c2ccc(Cl)cc2)CC1 [MK-0752] (0.1 nM),112%,94.1%,109%,81.8%,98.9%,101%,108%,52%,102%,90%,–,77.9%,98.9%,113%,106%,103%,104%,93.3%
CC(=O)Nc1ccc(C(=O)Nc2ccccc2N)cc1 [Tacedinaline] (0.1 nM),91.2%,99.7%,93%,103%,–,113%,98%,52.4%,98.8%,98.8%,83.8%,85.7%,98.9%,71.7%,98.7%,103%,79%,93.6%
C=CCNC1=C2C[C@@H](C)C[C@H](OC)[C@H](O)[C@@H](C)/C=C(\C)[C@H](OC(N)=O)[C@@H](OC)/C=C\C=C(/C)C(=O)NC(=CC1=O)C2=O [Tanespimycin] (1 nM),99.4%,97.1%,106%,98.2%,74.4%,109%,98.7%,104%,98.8%,98.2%,99.4%,–,101%,101%,98%,97.5%,108%,94.1%
CCc1c(C(=O)C(N)=O)c2c(OCC(=O)O)cccc2n1Cc1ccccc1 [Varespladib] (1 nM),95.3%,104%,107%,99.1%,66%,112%,105%,–,99.4%,91%,114%,98.8%,51.9%,98.4%,75.1%,112%,122%,100%
CC[C@]1(O)C[C@@H]2CN(CCc3c([nH]c4ccccc34)[C@@](C(=O)OC)(c3cc4c(cc3OC)N(C)[C@H]3[C@@](O)(C(=O)OC)[C@H](OC(C)=O)[C@]5(CC)C=CCN6CC[C@]43[C@@H]65)C2)C1 [Vinblastine] (0.1 nM),102%,103%,107%,97.3%,98.6%,117%,102%,57.9%,99.9%,100%,108%,63.3%,102%,106%,92.6%,109%,–,104%
COCC[n+]1c2c(n(Cc3cnccn3)c1C)C(=O)c1ccccc1C2=O [YM155] (1 nM),84.4%,97.7%,95.6%,109%,104%,114%,96%,104%,100%,97.9%,94.9%,86.7%,–,99.2%,101%,60.8%,90.6%,90.4%

# Entries of single compounds, quoted from the list. Order of values: normalised response (HCC1599) | normalised response (CAL-120) | normalised response (MDA-MB-231) | normalised response (CAL-85-1) | normalised response (MDA-MB-468) | normalised response (CAL-51) | normalised response (DU-4475) | normalised response (CAL-148) | normalised response (BT-474) | normalised response (BT-549) | normalised response (Hs578T) | normalised response (MDA-MB-436) | normalised response (MFM-223) | normalised response (MDA-MB-453) | normalised response (HDQ-P1) | normalised response (HCC1937) | normalised response (HCC1143) | normalised response (MCF-10A)
# CC[C@]1(O)C[C@@H]2CN(CCc3c([nH]c4ccccc34)[C@@](C(=O)OC)(c3cc4c(cc3OC)N(C)[C@H]3[C@@](O)(C(=O)OC)[C@H](OC(C)=O)[C@]5(CC)C=CCN6CC[C@]43[C@@H]65)C2)C1 [Vinblastine] (0.1 nM) is listed with 102% | 103% | 107% | 97.3% | 98.6% | 117% | 102% | 57.9% | 99.9% | 100% | 108% | 63.3% | 102% | 106% | 92.6% | 109% | – | 104%
# COCC[n+]1c2c(n(Cc3cnccn3)c1C)C(=O)c1ccccc1C2=O [YM155] (1 nM) is listed with 84.4% | 97.7% | 95.6% | 109% | 104% | 114% | 96% | 104% | 100% | 97.9% | 94.9% | 86.7% | – | 99.2% | 101% | 60.8% | 90.6% | 90.4%

# Reference: the supplement of paper PMC4862054
